Source: patent US20060239984A1
No constants are given. Whether binding was seen depends on the method and setting. For some assays here: Binding seen in cells or lysates may run through a third protein. Some binding calls cover weakened binding; strength is not graded here.

Chains of the proteins cited; added tags and fusions are not shown.
UniProt P17676: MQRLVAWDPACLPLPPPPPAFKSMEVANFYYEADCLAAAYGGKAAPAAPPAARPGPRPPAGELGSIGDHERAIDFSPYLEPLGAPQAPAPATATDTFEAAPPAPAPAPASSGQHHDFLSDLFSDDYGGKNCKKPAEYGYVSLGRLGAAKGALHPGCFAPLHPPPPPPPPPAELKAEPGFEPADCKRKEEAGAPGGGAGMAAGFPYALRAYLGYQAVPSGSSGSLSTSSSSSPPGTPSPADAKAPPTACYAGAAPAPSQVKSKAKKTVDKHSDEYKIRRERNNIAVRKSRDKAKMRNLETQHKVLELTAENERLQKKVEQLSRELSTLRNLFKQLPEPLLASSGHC

Legend:
[1] = molecular target: C/EBPβ (human (endogenous in human HepG2 cells)) (UniProt P17676); assay: EMSA with GAS probe and nuclear extracts of IFNgamma-treated HepG2 cells; complex abolished by anti-C/EBPβ and super shifted by anti-IRF-1
[2] = molecular target: C/EBPβ (human (endogenous in human HepG2 cells)) (UniProt P17676); assay: co-immunoprecipitation and immunoblot of nuclear extracts of IFNgamma-treated HepG2 cells

binding [1]: binds
binding [2]: binds
B1: IRF-1 (protein, human (endogenous in human HepG2 cells), UniProt P10914 1-325, looked up)
chain: MPITRMRMRPWLEMQINSNQIPGLIWINKEEMIFQIPWKHAAKHGWDINKDACLFRSWAIHTGRYKAGEKEPDPKTWKANFRCAMNSLPDIEEVKDQSRNKGSSAVRVYRMLPPLTKNQRKERKSKSSRDAKSKAKRKSCGDSSPDTFSDGLSSSTLPDDHSSYTVPGYMQDLEVEQALTPALSPCAVSSTLPDWHIPVEVVPDSTSDLYNFQVSPMPSTSEATTDEDEEGKLPEDIMKLLEQSEWQPTNVDGKGYLLNEPGVQPTSVYGDFSCKEEPEIDSPGGDIGLSLQRVFTDLKNMDATWLDSLLTPVRLPSIQAIPCAP
